Measurements from publication PMC12040169 (PLOS Biology, 2025).
This is one part of the list.

Each compound was assayed on T1, CTL2-GFP (C. trachomatis L2/434/Bu, GFP-expressing). Details: bulk GFP, single well; 28.5 h, 10 µM; inhibitor.
T1 construct: L2/434/Bu, GFP-expressing
Design: species or system HeLa; Intracellular C. trachomatis growth in HeLa cells, bulk GFP fluorescence relative to DMSO

Row | Structure (SMILES) | % of control remaining [%]
1 | Cn1nccc1C1CCN(Cc2ccc(Oc3cnccn3)cc2)CC1 [CBK306400] | 108.341
2 | O=C(Nc1cnn(C23CC4CC(CC(C4)C2)C3)c1)c1cnn2c(C(F)(F)F)cc(-c3ccco3)nc12 [CBK268538] | 75.5415
3 | CN(CC1(C)COC1)C(=O)Cc1cccc2cccnc12 [CBK281963] | 96.5114
4 | Cc1nn2c(c1-c1ccno1)CCCCC2 [CBK007505] | 140.475
5 | O=C(Cn1ncc2cccn2c1=O)NCc1ccc(F)cc1 [CBK283851] | 127.066
6 | Cc1cc(C)nc(N2CCN(CCC(=O)O)CC2)n1 [CBK287272] | 157.259
7 | CC(=O)NC1(c2ccccc2F)CCN(c2ncc(-c3ccco3)c(-c3ccco3)n2)CC1 [CBK286428] | 154.26
8 | OC(CSc1ncnc2sc3c(c12)CCC3)Cn1cccn1 (stereo not drawn) [CBK304149] | 126.996
9 | Cc1nn(C)cc1CN1CCN(C(=S)NCCc2ccccc2)CC1 [CBK267069] | 110.921
10 | CC(C)c1ccc(S(=O)(=O)NCCC2CCN(Cc3ccccc3)CC2)cc1 [CBK043456] | 92.0896
11 | O=C(Nc1ccc2cccc(O)c2n1)c1cc[nH]c1 [CBK122743] | 96.5544
12 | O=C(c1ccncc1)N1CCCn2nc(-c3cccnc3)cc2C1 [CBK288607] | 113.213
13 | CC(C)(O)c1cc(CC2(NCc3ccco3)COC2)no1 [CBK289255] | 131.531
14 | O=S(=O)(Nc1ccc2nsnc2c1)c1ccc(Br)cc1C(F)(F)F [CBK062233] | 123.031
15 | CC(C)Oc1ccc(C(=O)N2CC(C)C(N3CCOCC3)C2)cn1 (stereo not drawn) [CBK304497] | 110.246
16 | Cn1c(SCC(=O)Nc2ccccc2[N+](=O)[O-])nc2ccccc2c1=O [CBK265096] | 101.575
17 | OC(COc1cccc2c1CCCC2)CN1CCC(O)(c2ccc(Br)cc2)CC1 (stereo not drawn) [CBK003584] | 171.674
18 | Nc1ncc(-c2ccc3c(c2)OCO3)nc1Nc1ccc2[nH]ccc2c1 [CBK063667] | 121.356
19 | O=C1CC(N2CCN(Cc3ccc4c(c3)OCO4)CC2)C(=O)N1c1cc(Cl)cc(Cl)c1 (stereo not drawn) [CBK074554] | 125.744
20 | O=C(O)C/N=C1/CCCc2ccccc2N1 [CBK261809] | 116.322
21 | O=C(Cc1nc(-c2ccncc2)n[nH]1)NC1CCCCC1 [CBK288544] | 96.8653

Copied from the list.
`O=C(Nc1ccc2cccc(O)c2n1)c1cc[nH]c1` [CBK122743] | % of control remaining [%]: 96.5544
`O=C(O)C/N=C1/CCCc2ccccc2N1` [CBK261809] | % of control remaining [%]: 116.322

(list continues)

Row | Structure (SMILES) | % of control remaining [%]
22 | CCn1ncc(CN(C)C(=O)CCC2CCCCN2C)c1C (stereo not drawn) [CBK307329] | 105.29
23 | Cc1ccccc1NC(=O)COc1ccc(S(=O)(=O)N2CCCC2)cc1Cl [CBK268938] | 130.082
24 | CC(CC(=O)O)CC(=O)N1CCCC1c1nc(-c2ccc(F)cc2)c2ccccn12 (stereo not drawn) [CBK046626] | 140.451
25 | O=C(CN1CCCC1=O)NC1(C(F)(F)F)NC(=O)N(c2ccc(F)cc2)C1=O (stereo not drawn) [CBK268057] | 104.79
26 | CCn1c(-c2ccc3c(c2)OCCO3)cnc1SCC(=O)c1cc(C)[nH]c1C [CBK297880] | 141.878
27 | O=C1CC(SCc2nc3ccccc3[nH]2)C(=O)N1c1ccccc1Cl (stereo not drawn) [CBK266702] | 92.4648
28 | O=C(O)Cn1cc(I)c(=O)[nH]c1=O [CBK262698] | 125.346
29 | Cc1[nH]c(=O)[nH]c(=O)c1CCC(=O)N(C)CC(=O)Nc1cccc(F)c1 [CBK305703] | 124.526
30 | CC(=O)c1ccc(-c2cc(Nc3ccc(O)cc3C)ncn2)s1 [CBK091052] | 97.1899
31 | CC1CN(c2cc(CO)c(F)cn2)CC2(CCOC2)O1 (stereo not drawn) [CBK304772] | 135.752
32 | COc1ccc(C(C)C)cc1-c1cnc2[nH]c(=O)n([C@H](CO)C(C)C)c2n1 [CBK064962] | 107.256
33 | CC(=O)N(C)Cc1cccc(Nc2ncnc3c2cnn3C)c1 [CBK306319] | 151.36
34 | O=C1c2ccccc2C(=O)N1CN(Cc1ccc2c(c1)OCO2)CN1C(=O)c2ccccc2C1=O [CBK265197] | 107.037
35 | COC(=O)c1ccc(NC(=O)N2CCCC2c2nc(-c3ccccc3)c3ccccn23)cc1 (stereo not drawn) [CBK046725] | 161.991
36 | Cc1cc(O)n2nc(CC(=O)NCCCn3ccnc3C(C)C)nc2n1 [CBK306876] | 128.821
37 | CCOC(=O)c1sc(NCCOc2cccc(C)c2)nc1C [CBK265574] | 129.285
38 | O=C(NCCCN1CCOCC1)c1cc(Cl)ccc1[N+](=O)[O-] [CBK265470] | 117.219
39 | O=C1CC(C(=O)O)CN(c2cccs2)C1 (stereo not drawn) [CBK021796] | 129.88
40 | O=C1NC/C=C/CC2(CCN(C(=O)c3cccnn3)CC2)C(=O)NCCOc2ccccc21 [CBK292095] | 97.0691
41 | CCOC(=O)C(CO)NC(=O)c1cncc(Br)c1 (stereo not drawn) [CBK263926] | 134.321
42 | COC(=O)CN1C(=O)S/C(=C/c2cc(C)n(-c3ccc(S(N)(=O)=O)cc3)c2C)C1=O [CBK265249] | 100

Row | Structure (SMILES) | % of control remaining [%]
43 | C[C@@H]1CC(=O)CCC1NC(=O)c1ccccc1 (stereo partly drawn) [CBK017832] | 151.158
44 | Cc1ncccc1COC(=O)N1CCCC(F)C1 (stereo not drawn) [CBK200155] | 147.91
45 | O=S(=O)(Nc1cccc(Br)c1)c1ccc(OC(F)(F)F)cc1 [CBK044369] | 90.1489
46 | CC(=O)c1cccc(NC(=O)Cn2ncc(N3CCCC3)c(Cl)c2=O)c1 [CBK304395] | 120.773
47 | COc1ccc(-c2csc(CC(=O)O)n2)cc1 [CBK159469] | 112.374
48 | CC1(C)CC(NC(=O)C23CCC(C)(c4nc5ccccc5nc42)C3(C)C)CC(C)(C)N1 (stereo not drawn) [CBK266559] | 149.725
49 | O=C(CC1SC(NC2CC3C=CC2C3)=NC1=O)NCc1ccccc1 (stereo not drawn) [CBK049940] | 152.934
50 | CNC(=O)C1(Cc2ccc(-c3ccccc3)cc2)CCN(C(=O)COc2ccccc2)CC1 [CBK285766] | 137.127
51 | Cc1nn(C)c(Cl)c1S(=O)(=O)NCc1cc(C)n(C)n1 [CBK062154] | 162.338
52 | CCCC/C=C/c1cnc2[nH]c(=O)n(CCCOC)c2n1 [CBK064540] | 92.142
53 | O=C(c1ccccc1)c1ccccc1OCCO [CBK000728] | 129.502
54 | Cc1ccc(SCCNS(=O)(=O)c2ccc(C)cc2)cc1 [CBK263564] | 107.836
55 | Cc1cc(NC(=O)CSc2nnc3ccc(-c4ccccc4)nn23)no1 [CBK287679] | 99.6491
56 | COc1cnc(-c2ccsc2)c(NC(=O)CC(C)C)n1 [CBK145292] | 170.131
57 | COc1ccc2c(c1)CCCN2C(=O)c1sc2ccccc2c1Cl [CBK056960] | 86.1911
58 | Cc1ccccc1CNCCNCCO [CBK278293C] | 104.818
59 | Cn1c2c(c(=O)[nH]c1=O)C1(O)C(=O)c3ccccc3C1(O)N2 (stereo not drawn) [CBK261683] | 90.8798
60 | Cc1ncsc1C(=O)N1CCCC(n2cnc3cc(F)ccc32)C1 (stereo not drawn) [CBK284470] | 122.781
61 | O=C(C1CC1)N1CCC[C@H]1Cn1nc(-c2ccc(F)cc2)ccc1=O [CBK284252] | 127.58
62 | O=C(c1ccco1)N1CCC(n2c(=O)oc3ccc(Cl)cc32)CC1 [CBK284343] | 85.7518
63 | O=C(NCCN1CCOCC1)c1ccc2nccnc2c1 [CBK268806] | 119.05

Structural class: the compounds so far with an aryl methoxy group (4)
Row | Structure (SMILES) | % of control remaining [%]
32 | COc1ccc(C(C)C)cc1-c1cnc2[nH]c(=O)n([C@H](CO)C(C)C)c2n1 [CBK064962] | 107.256
47 | COc1ccc(-c2csc(CC(=O)O)n2)cc1 [CBK159469] | 112.374
56 | COc1cnc(-c2ccsc2)c(NC(=O)CC(C)C)n1 [CBK145292] | 170.131
57 | COc1ccc2c(c1)CCCN2C(=O)c1sc2ccccc2c1Cl [CBK056960] | 86.1911

(continued)

Row | Structure (SMILES) | % of control remaining [%]
64 | Cc1nc(-c2ccccc2)sc1CNC(=O)C(F)(F)F [CBK092363] | 124.335
65 | CCOc1ccc(NC(=O)N(CCO)Cc2nccn2C)cc1C#N [CBK307634] | 152.909
66 | NC(=O)CNC(=O)C1CCCN(c2nc3c(-c4ccccc4)csc3c(=O)[nH]2)C1 (stereo not drawn) [CBK215487] | 156.33
67 | COc1ncc(-c2nccnc2OC)c(OC)n1 [CBK106744] | 104.952
68 | Brc1cnc(-n2cnc3ccccc32)nc1 [CBK288546] | 136.566
69 | O=C(CN1CCC(c2ccc(F)cc2)CC1)N1CCOCC1 [CBK283683] | 177.576
70 | CNCCC(Sc1ccccn1)c1ccccc1 (stereo not drawn) [CBK021724C] | 138.92
71 | COc1ccc2ccccc2c1[S+]([O-])NC1CCCCC1 (stereo not drawn) [CBK022400] | 156.074
72 | N#Cc1c(N)nc(SCC(=O)c2cc3ccccc3oc2=O)c(C#N)c1-c1ccc(O)cc1 [CBK261269] | 116.093
73 | Nc1n[nH]c(SCC(=O)Nc2ccc(Br)cc2Cl)n1 [CBK267875] | 112.369
74 | Cc1nn(Cc2cccnc2)c(=O)n2cccc12 [CBK283848] | 97.962
75 | CCN(CC)C(=O)c1ccc(-n2ccnc2)c(-n2cccc2)c1 [CBK285371] | 110.432
76 | CC(C)c1ccc(NC(=O)CN2CCN(c3ccc(C(F)(F)F)cn3)CC2)cc1 [CBK086000] | 124.363
77 | CCn1cc(C(=O)N2CCN(Cc3ccco3)C[C@@H]2C(C)C)c(C)n1 [CBK285488] | 92.5689
78 | CCn1c(CN2CCn3c(nnc3C3CC3)C2)nc2c(F)cccc21 [CBK306300] | 105.199
79 | NC1CCC(N(CCc2ccccc2)C(=O)Nc2ccc3c(c2)OCO3)CC1 (stereo not drawn) [CBK000480C] | 112.577
80 | O=C(Cn1cccn1)NC(CN1CCCCC1)c1ccccc1 (stereo not drawn) [CBK281726] | 136.113
81 | Cc1cc(C)n(CC2CN(CC(=O)NCc3ccccn3)CCO2)n1 (stereo not drawn) [CBK305344] | 122.044
